Some of the results follow.
Biological target: OsWRKY34 (Oryza sativa, UniProt Q0JBA9 1-250)
Experiment: protein-binding microarray (RPBM); PBS, 2% BSA, 51.3 ng/ul salmon testes DNA, 50 uM zinc acetate, 200 nM TF, 25 C, 1 h; high values mean tight binding
Settings: protein: recombinant; tags: N-terminal polyhistidine and DsRed monomer fusion (pET32a); label: CyDye5-dUTP incorporated in the synthesized complementary strand; 3' TTTTT single-stranded linker to array surface; dsDNA, one strand shown
Summary of the method: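 Using Ni–NTA, transcription factors fused N-terminally to polyhistidine and DsRed were purified after expression in E. coli BL21-CodonPlus. These were incubated at 200 nM with a blocked, double-stranded custom Agilent array for 1 h at 25 °C in a buffer containing 50 µM zinc acetate, and the array was washed. The binding signal is per-feature fluorescence intensity (arbitrary units) on an Axon 4000B scanner.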

Protein sequences, listed by entry. Tags and fused reporters are not part of them.
UniProt Q0JBA9, entry or part of it: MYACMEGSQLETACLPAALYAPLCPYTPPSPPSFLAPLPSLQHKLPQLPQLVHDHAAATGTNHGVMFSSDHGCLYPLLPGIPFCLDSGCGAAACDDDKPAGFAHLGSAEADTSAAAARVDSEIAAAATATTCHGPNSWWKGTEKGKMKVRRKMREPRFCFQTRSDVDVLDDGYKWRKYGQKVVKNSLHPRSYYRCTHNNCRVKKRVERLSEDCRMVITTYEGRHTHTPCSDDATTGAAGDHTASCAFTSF

Sequence | binding signal
GCTAGCATCGAGCGTTCTTTCTCTCCTCGGGCTCTCGTTGCGGAGTCACCTAGTGCAG | 9210 fluorescence intensity (a.u.)
ACGATGTGTCCTTCTATTTTATTCTGCATTTGGAATTCTACGGAGTCACCTAGTGCAG | 9840 fluorescence intensity (a.u.)
ACTTTGCTGCCTATTGTAGATTTGTTATAACGTAGTTACTCGGAGTCACCTAGTGCAG | 10400 fluorescence intensity (a.u.)
GTGGTTGCGGCAGGCTTCGTTTTCAACAGCATTTCATTCCCGGAGTCACCTAGTGCAG | 8290 fluorescence intensity (a.u.)
TTATAGAATATTTAACTCTTTGTCTTATTTAATAATTTTCCGGAGTCACCTAGTGCAG | 8530 fluorescence intensity (a.u.)
GAGTGACATTTGGGGTGGTTTTTGCAATTTTCTCTAAATTCGGAGTCACCTAGTGCAG | 13000 fluorescence intensity (a.u.)
GGCCGATGATCACAACTCTCCGGGGCCGATTGGGGTTTATCGGAGTCACCTAGTGCAG | 9230 fluorescence intensity (a.u.)
AGCTCCAAATGATTTTTTCTCCTAAACCGTTTATCTAATTCGGAGTCACCTAGTGCAG | 9020 fluorescence intensity (a.u.)
TGTCTTGGTTTTCGTTCGCATGTTTTTCAAACTTACACACCGGAGTCACCTAGTGCAG | 8970 fluorescence intensity (a.u.)
TCTATCCGAACACATGTTTATATATCATTCCTGGGTTTTTCGGAGTCACCTAGTGCAG | 11700 fluorescence intensity (a.u.)
TCGTGTCCTTCTGCCGCTAAAAGCCCATCTTTTTCTCCTTCGGAGTCACCTAGTGCAG | 11500 fluorescence intensity (a.u.)
TTCTTCTTCTGCCATTCCATCCATCCACCGCCGCCTCCGCCGGAGTCACCTAGTGCAG | 8380 fluorescence intensity (a.u.)
ACCTGTGAATGTCTCTAGTGTGACGACTCTACTTCAGTTTCGGAGTCACCTAGTGCAG | 8300 fluorescence intensity (a.u.)
CGTCCCACCCCGACCGCCATCCATCCATCGGTGGATATAACGGAGTCACCTAGTGCAG | 8870 fluorescence intensity (a.u.)
CCCATCCCATCGCGTCTCCTCCGCTTAAATCCCCGCGGCTCGGAGTCACCTAGTGCAG | 9380 fluorescence intensity (a.u.)
GGGTGGGTTGATTTGATAGACTTCTTTTGCTTTTGATAAACGGAGTCACCTAGTGCAG | 29100 fluorescence intensity (a.u.)
CCCTCTCGGCTCTCGCTGGTTACCCCTTTCGACCGCCACCCGGAGTCACCTAGTGCAG | 10800 fluorescence intensity (a.u.)
CAATTTTTTTTCGTACAATTGCCGCTCTCATTCATAACCACGGAGTCACCTAGTGCAG | 9900 fluorescence intensity (a.u.)
TAACACTCAACTAATCATACGGTGATGACTCACCTTTTTTCGGAGTCACCTAGTGCAG | 9380 fluorescence intensity (a.u.)
GTCAATTCTTCTGCTAGCTGTGTAACAATATTCATCTGTACGGAGTCACCTAGTGCAG | 10100 fluorescence intensity (a.u.)
ACACATTCAAACTTCTTGACGTCTGACCCTCGACATCTACCGGAGTCACCTAGTGCAG | 9480 fluorescence intensity (a.u.)

Sequence | binding signal
GTGGCGGCGGGTGGGGCCCATCTCATGGCTGCTGCCTCTGCGGAGTCACCTAGTGCAG | 10800 fluorescence intensity (a.u.)
GTGCATCCGTCTTTCTTGCTGCTAGTGTCTTCTTCAGCGACGGAGTCACCTAGTGCAG | 12200 fluorescence intensity (a.u.)
GTTGCAGTTATGGTGATATATCTCTTCTTTTTACATCAAACGGAGTCACCTAGTGCAG | 10600 fluorescence intensity (a.u.)
TTCCCCATGTTTTTTTGCCCACTAACTCACTAGCCACCACCGGAGTCACCTAGTGCAG | 10700 fluorescence intensity (a.u.)
CTTTATTCGATATATGGGACAAATTAAGGCAGTTGCACCTCGGAGTCACCTAGTGCAG | 8820 fluorescence intensity (a.u.)
TTTATTTTTATACTGTCACGTATCAACTGCAGTATGCATCCGGAGTCACCTAGTGCAG | 8490 fluorescence intensity (a.u.)
TTCTTTTCCATATCGCGTTGGCCACGCGTCACCGATCGAGCGGAGTCACCTAGTGCAG | 8720 fluorescence intensity (a.u.)
TTTAAGTTTTTGTTTGTACTATTTGACCACTCGTTTTATTCGGAGTCACCTAGTGCAG | 8100 fluorescence intensity (a.u.)
CAATTTTAGGTTATCTATTTGTGTACTTTTTTAGTTACTGCGGAGTCACCTAGTGCAG | 8120 fluorescence intensity (a.u.)
ATTGTTTTTTTTTCTTTTGCTGCGATTAACTGGACTTGTTCGGAGTCACCTAGTGCAG | 8800 fluorescence intensity (a.u.)
TCACCTTCTGTGTTTCTTTTTTCTCTTTTCCATCTCATCCCGGAGTCACCTAGTGCAG | 9530 fluorescence intensity (a.u.)
AACATGTACTAAAAAGTCAACGGTGTCGAACATTTTGAAACGGAGTCACCTAGTGCAG | 8820 fluorescence intensity (a.u.)
GGTGACTTCTACTTGGCCCATGCAATGTTTGGTTGGTTTCCGGAGTCACCTAGTGCAG | 12300 fluorescence intensity (a.u.)
GGCCCACAACATCCGGTCCATCTATTTTCATCGCCACTATCGGAGTCACCTAGTGCAG | 11500 fluorescence intensity (a.u.)
TCATCGTCACTTTCATCGGTTTTAGCCTCACCATTGCTTGCGGAGTCACCTAGTGCAG | 8810 fluorescence intensity (a.u.)
TTCGTCTTCATCTGCCCATCTCTTTCGTTCTCTCGGCTCTCGGAGTCACCTAGTGCAG | 12600 fluorescence intensity (a.u.)
TACTTCTACTGCTGCTGCGCTTCCCTGCTTGTACCAGCCGCGGAGTCACCTAGTGCAG | 9730 fluorescence intensity (a.u.)
GGTTGAATATATCATGCCTCTGCTCAACTTCTGGTCTTTTCGGAGTCACCTAGTGCAG | 10300 fluorescence intensity (a.u.)
ATTTGTACATTGACGCGTGGACTTATTATGCACTAAATAACGGAGTCACCTAGTGCAG | 8660 fluorescence intensity (a.u.)
ATTTTCTCCTCTCTACCTTAGGATTTTTATCTTTTTTCTACGGAGTCACCTAGTGCAG | 8400 fluorescence intensity (a.u.)
CATCTGATTTTATTCCATGGATTTCATTTCACTCATCCCACGGAGTCACCTAGTGCAG | 8110 fluorescence intensity (a.u.)

— article PMC7819943, “Rice protein-binding microarrays: a tool to detect cis-acting elements near promoter regions in rice”
